Source: patent publication US20060153933A1 (priority 2002, published 2006)
Values joined by “and” are separate entries in the source; they are usually repeats but may differ in a detail not shown here. Equal values may be shown once. Read-outs that look alike come from different tables or passages of the source. At least one read-out could not be matched to a standard name with certainty.

Assays:
[1] = test system: Phytophthora infestans (PHYTIN); type: in vivo; conditions: 3DP; 5.56 ppm alone
[2] = test system: Plasmopara viticola (PLASVI); type: in vivo

CC[C@H](CS(=O)(=O)C(C)c1ccc(C#N)cc1)NC(=O)Oc1ccc(F)cc1 (stereo partly drawn) [Formula III, 4-fluorophenyl(1S)-1-({[(1R,S)-(4-cyanophenyl)ethyl]sulfonyl}methyl)-propylcarbamate]
% Disease Control (observed) [1]: 61.4% | % Disease Control (observed) ([2]; 1DP, 0.62 ppm alone): 21.1% | % Disease Control (observed) ([2]; 2DP, 0.62 ppm alone): 3.5% | % Disease Control (observed) ([2]; 2DP, 1.85 ppm alone): 8.8% | % Disease Control (observed) ([2]; 3DP, 0.62 ppm alone): 0.0% and 8.8% | % Disease Control (observed) ([2]; 3DP, 5.56 ppm alone): 31.6%
